According to patent publication US20040138133A1:
No constants are given. Whether binding was seen depends on the method and setting. Binding seen in cells or lysates may run through a third protein. Some results given as binding are weak or reduced against the parent protein; the word gives no strength.

Tests used:
[1] = molecular target: Nck (adapter protein) from detergent extracts of human endothelial cells (human) (UniProt P16333); assay: peptide-agarose pull-down from human endothelial cell lysate, anti-Nck western blot (summary of Example 1)
[2] = molecular target: Nck (adapter protein) from detergent extracts of human endothelial cells (human) (UniProt P16333); assay: peptide-agarose pull-down from human endothelial cell lysate, anti-Nck western blot

B1: PRO peptide (13 residues from the first proline-rich domain of PAK1) lacking the Tat sequence, with a cysteine for coupling to agarose (peptide)
peptide: KPPAPPMRNTSTMC
modifications: terminal cysteine coupled to activated thiol-Sepharose (agarose) beads
With B1 the binding [1] was “binds” and the binding [2] was “binds”.
